Results reported in US20070148663A1.
These are yes or no findings as the source states them, for the method shown. In cells and extracts the contact can be indirect. Some results given as binding are weak or reduced against the parent protein; the word gives no strength. For part of these data: Tags and fused reporters may be left off the sequences shown.

Amino acid sequences for entries named in this document (tags omitted). A change or cut given only in a name is not applied to a line headed by its entry. Chains listed by the source or under a name are the forms on record and can include a tag or linker. Residues count along the entry.
GST-APC-C (amino acids 2167-2843) (P25054, residues 2167-2843): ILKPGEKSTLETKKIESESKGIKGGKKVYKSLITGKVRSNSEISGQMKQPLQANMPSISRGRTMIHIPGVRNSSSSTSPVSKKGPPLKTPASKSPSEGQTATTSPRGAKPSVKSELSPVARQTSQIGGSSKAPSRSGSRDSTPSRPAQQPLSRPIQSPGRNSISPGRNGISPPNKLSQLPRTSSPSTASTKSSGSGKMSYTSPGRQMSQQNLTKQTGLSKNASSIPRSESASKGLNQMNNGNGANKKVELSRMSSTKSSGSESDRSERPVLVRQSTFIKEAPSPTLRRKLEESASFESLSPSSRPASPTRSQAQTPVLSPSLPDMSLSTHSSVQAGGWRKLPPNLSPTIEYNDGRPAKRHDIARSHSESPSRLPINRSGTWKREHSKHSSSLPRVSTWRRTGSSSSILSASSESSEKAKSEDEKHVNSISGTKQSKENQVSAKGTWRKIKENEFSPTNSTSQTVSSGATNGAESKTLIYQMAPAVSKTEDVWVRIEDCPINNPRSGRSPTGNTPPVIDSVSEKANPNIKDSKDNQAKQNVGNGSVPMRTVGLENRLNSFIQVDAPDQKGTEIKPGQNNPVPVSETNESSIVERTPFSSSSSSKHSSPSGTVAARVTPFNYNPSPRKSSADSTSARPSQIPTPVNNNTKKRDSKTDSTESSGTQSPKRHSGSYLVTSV
GST-APC-basic (amino acids 2,167-2,674) (P25054, residues 2167-2674): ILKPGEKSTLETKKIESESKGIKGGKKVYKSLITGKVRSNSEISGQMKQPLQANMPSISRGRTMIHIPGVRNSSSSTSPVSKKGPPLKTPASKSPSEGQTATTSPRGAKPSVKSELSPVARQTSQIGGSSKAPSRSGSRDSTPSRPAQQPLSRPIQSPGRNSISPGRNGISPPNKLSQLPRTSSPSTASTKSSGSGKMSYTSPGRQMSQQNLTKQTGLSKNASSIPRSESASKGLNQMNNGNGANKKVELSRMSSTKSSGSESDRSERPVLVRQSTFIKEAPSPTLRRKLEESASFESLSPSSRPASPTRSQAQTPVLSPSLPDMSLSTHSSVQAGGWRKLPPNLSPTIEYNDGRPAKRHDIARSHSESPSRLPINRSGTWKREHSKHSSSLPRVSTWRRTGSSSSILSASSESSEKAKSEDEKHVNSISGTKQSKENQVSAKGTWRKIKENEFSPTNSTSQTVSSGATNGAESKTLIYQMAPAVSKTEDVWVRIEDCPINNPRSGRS
His-521-1040-mDia2 (purified recombinant protein) (Q9Z207, residues 521-1040): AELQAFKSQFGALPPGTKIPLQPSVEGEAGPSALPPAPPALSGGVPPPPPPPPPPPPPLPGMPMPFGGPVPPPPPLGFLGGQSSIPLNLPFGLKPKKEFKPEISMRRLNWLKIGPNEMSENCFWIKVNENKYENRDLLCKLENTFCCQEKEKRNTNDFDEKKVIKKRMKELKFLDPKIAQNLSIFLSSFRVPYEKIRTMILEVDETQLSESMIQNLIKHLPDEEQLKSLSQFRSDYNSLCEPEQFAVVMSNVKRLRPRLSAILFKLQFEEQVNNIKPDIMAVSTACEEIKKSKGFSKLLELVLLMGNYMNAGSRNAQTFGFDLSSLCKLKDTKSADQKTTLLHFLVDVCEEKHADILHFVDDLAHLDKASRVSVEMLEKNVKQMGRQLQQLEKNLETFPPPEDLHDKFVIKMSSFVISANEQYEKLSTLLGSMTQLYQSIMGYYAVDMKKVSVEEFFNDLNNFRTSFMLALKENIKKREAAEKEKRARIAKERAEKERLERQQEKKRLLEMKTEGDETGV
609-1,040-mDia2, in vitro transcribed and translated, 35S-labelled (Q9Z207, residues 609-1040): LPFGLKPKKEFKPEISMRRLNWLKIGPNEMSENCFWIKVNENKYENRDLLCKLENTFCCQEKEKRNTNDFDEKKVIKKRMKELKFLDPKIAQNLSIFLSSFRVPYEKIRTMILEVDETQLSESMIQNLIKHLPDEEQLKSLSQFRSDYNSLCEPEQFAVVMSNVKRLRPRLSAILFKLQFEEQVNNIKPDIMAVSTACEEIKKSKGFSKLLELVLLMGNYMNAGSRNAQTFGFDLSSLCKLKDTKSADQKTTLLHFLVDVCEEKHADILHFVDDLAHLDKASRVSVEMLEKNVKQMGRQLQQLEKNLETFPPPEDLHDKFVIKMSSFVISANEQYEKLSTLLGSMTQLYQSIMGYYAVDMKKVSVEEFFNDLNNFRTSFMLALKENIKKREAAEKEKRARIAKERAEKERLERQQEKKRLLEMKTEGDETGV
ΔGBDΔDADG(YEKR)-mDia2 (Q9Z207, form named): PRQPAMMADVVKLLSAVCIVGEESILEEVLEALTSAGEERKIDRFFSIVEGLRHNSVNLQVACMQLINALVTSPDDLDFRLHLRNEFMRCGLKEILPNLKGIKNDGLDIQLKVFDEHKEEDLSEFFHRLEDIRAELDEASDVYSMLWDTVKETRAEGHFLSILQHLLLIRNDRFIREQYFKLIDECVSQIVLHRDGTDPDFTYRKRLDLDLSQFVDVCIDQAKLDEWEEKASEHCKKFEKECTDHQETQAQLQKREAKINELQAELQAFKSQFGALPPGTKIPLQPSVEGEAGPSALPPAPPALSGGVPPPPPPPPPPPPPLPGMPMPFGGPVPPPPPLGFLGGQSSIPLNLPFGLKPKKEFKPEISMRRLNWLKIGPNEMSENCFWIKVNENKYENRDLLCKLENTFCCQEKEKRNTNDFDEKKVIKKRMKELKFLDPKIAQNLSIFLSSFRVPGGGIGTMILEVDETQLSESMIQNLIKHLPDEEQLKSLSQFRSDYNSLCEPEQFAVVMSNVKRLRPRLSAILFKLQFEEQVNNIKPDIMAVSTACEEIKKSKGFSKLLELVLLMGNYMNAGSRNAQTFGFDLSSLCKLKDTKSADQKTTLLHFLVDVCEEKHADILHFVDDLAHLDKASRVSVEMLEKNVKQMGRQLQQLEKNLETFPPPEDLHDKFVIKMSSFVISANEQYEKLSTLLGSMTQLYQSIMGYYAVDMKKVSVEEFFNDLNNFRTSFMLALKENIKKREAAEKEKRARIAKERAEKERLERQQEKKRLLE
UniProt O08808: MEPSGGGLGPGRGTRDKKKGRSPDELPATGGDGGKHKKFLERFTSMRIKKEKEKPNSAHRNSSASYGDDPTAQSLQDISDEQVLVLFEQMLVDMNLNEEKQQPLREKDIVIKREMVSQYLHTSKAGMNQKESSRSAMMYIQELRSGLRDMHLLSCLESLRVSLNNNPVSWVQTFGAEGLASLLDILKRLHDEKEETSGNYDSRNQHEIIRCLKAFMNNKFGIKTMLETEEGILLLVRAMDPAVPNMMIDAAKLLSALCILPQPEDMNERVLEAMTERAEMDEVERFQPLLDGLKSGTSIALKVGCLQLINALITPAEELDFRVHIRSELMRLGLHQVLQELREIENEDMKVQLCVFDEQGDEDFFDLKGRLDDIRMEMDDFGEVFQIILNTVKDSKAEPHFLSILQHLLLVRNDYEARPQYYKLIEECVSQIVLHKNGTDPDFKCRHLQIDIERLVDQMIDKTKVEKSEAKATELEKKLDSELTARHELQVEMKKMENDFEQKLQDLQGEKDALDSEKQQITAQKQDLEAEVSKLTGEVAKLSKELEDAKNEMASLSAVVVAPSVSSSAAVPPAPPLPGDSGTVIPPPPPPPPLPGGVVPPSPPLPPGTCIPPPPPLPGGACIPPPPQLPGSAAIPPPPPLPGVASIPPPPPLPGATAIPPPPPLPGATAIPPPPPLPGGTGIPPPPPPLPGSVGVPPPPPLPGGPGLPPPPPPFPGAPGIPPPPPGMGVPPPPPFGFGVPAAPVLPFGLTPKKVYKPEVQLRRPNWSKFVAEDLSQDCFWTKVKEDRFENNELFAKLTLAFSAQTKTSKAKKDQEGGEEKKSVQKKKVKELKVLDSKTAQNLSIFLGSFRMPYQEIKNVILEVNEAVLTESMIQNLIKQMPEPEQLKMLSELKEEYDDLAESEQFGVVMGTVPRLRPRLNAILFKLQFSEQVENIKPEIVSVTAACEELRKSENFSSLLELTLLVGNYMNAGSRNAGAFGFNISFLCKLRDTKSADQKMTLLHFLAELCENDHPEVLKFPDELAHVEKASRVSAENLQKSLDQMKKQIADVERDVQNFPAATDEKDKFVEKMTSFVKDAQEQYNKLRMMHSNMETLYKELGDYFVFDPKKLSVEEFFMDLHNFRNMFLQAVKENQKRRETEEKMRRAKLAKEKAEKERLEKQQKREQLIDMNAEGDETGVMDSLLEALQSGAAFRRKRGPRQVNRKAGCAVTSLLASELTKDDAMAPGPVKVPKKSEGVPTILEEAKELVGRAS

Experiments:
[1] = target: T1, GST-EB1 (mouse) (UniProt Q61166); experiment: GST pull-down of 35S-labelled in vitro translated protein, autoradiography
T1 sequence (looked up): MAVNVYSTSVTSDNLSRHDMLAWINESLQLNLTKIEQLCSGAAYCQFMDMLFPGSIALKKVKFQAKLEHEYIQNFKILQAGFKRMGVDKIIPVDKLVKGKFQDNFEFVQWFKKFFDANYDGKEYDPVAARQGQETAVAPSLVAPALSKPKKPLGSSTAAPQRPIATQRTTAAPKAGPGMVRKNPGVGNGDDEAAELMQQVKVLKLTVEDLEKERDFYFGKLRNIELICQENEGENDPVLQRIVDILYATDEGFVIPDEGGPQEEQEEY

[2] = target: GST-APC-C (amino acids 2167-2843) (UniProt P25054); experiment: as above
[3] = target: T1, GST-EB1 (mouse); experiment: GST pull-down from COS-7 lysates in the presence of DMSO, nocodazole or latrunculin A, anti-Flag western blot
[4] = target: GST-APC-C (amino acids 2167-2843) (UniProt P25054); experiment: as above
[5] = target: T2, GST-EB1-N (mouse) (UniProt Q61166); experiment: direct binding of purified recombinant proteins (0.3 µM each), GST pull-down, anti-His western blot
T2 sequence (looked up): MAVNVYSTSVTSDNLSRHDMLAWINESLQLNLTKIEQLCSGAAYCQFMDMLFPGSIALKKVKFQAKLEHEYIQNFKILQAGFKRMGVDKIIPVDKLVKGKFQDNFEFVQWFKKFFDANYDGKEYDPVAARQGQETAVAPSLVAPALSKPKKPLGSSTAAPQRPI

[6] = target: T1, GST-EB1 (mouse); experiment: as above
[7] = target: GST-APC-basic (amino acids 2,167-2,674) (UniProt P25054); experiment: as above
[8] = target: GST-APC-C (amino acids 2167-2843) (UniProt P25054); experiment: as above
[9] = target: T1, GST-EB1 (mouse); experiment: direct binding of purified recombinant proteins, GST pull-down, anti-His western blot

## 609-1,040-mDia2, in vitro transcribed and translated, 35S-labelled (from UniProt Q9Z207 609-1040)
[1]
  binding: binds
[2]
  binding: binds

## 521-1040-mDia2 fragment, in vitro transcribed and translated, 35S-labelled (from UniProt Q9Z207 521-1040)
[1]
  binding: binds
[2]
  binding: binds

## ΔGBDΔDADG(YEKR)-mDia2 (from UniProt Q9Z207 258-1030)
[2]
  binding: binds

## Flag-mDia1 (full-length mDia1) expressed in COS-7 cells (from UniProt O08808 1-1255)
[3]
  binding: binds
[4]
  binding: binds

## His-521-1040-mDia2 (purified recombinant protein) (from UniProt Q9Z207 521-1040)
[5]
  binding: binds
[6]
  binding: binds
[7]
  binding: binds
[8]
  binding: binds
[9]
  binding: binds
